Assay [1] addresses T1, GFP-CUP (full length) (Drosophila melanogaster) (UniProt Q9VMA3).
T1 sequence: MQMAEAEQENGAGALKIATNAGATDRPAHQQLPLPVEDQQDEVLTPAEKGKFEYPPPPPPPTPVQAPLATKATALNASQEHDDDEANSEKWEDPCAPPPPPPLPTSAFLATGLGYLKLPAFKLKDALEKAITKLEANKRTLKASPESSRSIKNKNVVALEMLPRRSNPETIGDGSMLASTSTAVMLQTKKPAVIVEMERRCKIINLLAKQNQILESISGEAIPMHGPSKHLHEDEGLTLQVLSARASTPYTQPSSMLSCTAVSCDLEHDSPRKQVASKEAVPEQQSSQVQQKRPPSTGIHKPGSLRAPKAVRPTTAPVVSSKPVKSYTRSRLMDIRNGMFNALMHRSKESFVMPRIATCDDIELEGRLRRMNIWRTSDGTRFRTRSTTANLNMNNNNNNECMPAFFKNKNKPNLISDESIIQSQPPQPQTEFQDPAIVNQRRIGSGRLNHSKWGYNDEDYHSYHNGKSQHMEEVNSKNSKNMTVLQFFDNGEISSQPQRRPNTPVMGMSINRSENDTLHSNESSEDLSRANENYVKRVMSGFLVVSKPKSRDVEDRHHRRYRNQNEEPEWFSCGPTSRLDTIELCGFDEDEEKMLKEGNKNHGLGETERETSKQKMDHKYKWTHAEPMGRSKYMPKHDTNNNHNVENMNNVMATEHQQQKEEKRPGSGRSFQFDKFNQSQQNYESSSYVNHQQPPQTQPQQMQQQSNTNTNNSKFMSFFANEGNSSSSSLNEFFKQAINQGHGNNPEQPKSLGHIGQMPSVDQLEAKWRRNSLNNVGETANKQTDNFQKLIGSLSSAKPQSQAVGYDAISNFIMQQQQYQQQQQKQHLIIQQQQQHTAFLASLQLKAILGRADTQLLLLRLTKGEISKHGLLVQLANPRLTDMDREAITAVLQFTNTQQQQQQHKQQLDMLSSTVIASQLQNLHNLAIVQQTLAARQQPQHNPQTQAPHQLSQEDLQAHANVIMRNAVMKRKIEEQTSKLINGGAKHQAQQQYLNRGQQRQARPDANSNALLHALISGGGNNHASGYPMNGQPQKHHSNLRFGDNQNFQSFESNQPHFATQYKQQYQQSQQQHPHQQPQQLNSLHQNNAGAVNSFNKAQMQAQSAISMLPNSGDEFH
Description: co-IP + pull-down; S2 cell lysates; tagged 4E-BPs and endogenous eIF4E; pull-downs on m7GTP beads, 1 h at 4 °C, washes in NET buffer (50 mM Tris pH 7.4, 150 mM NaCl, 1 mM EDTA, 0.1% Triton X-100); western blot. A general note: Immunoblotting shows a protein as a band on a membrane.

For assay [2], the target named is T2, HA-Thor (full length, WT) (Drosophila melanogaster) (UniProt Q9XZ56).
T2 sequence: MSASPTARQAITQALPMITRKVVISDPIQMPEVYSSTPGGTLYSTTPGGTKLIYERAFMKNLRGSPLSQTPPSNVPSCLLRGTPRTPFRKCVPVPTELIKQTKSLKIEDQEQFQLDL
The assay is described as above.

Assay [3] concerns the target T3, GFP-4E-T (full length, WT) (Drosophila melanogaster) (UniProt Q8IH18).
T3 sequence: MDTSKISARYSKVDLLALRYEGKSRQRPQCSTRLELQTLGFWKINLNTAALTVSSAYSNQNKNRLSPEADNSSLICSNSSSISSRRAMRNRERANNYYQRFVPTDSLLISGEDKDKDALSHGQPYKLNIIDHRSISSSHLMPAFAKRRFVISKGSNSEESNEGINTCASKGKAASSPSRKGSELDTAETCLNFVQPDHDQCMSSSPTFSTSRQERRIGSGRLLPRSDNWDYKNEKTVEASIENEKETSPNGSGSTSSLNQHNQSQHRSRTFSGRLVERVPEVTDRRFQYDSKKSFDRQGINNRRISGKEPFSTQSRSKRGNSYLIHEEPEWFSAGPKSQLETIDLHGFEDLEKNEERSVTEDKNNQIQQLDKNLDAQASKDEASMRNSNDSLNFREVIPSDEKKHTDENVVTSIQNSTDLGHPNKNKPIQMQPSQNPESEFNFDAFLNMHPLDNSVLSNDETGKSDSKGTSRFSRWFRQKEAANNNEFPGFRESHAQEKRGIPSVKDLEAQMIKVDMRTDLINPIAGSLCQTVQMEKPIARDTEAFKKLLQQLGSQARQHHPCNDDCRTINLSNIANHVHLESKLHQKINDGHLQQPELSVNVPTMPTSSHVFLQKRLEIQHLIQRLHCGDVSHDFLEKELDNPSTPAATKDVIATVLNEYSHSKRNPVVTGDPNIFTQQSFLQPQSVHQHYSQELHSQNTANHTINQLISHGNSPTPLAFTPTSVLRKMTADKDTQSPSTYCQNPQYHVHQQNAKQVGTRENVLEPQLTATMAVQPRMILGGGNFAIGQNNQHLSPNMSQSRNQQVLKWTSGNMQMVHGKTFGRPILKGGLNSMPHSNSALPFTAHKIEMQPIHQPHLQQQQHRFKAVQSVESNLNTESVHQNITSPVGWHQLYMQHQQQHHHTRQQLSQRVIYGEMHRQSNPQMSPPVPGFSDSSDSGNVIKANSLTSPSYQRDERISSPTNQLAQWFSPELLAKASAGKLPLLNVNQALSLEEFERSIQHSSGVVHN
The description is as above.

Assay [4] deals with T4, HA-Thor (full length, NC*) (Drosophila melanogaster) (UniProt Q9XZ56).
T4 sequence: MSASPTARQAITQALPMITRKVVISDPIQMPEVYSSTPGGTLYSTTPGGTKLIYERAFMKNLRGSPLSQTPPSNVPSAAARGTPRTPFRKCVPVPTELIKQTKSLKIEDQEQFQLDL
As to the kind of experiment: co-IP; S2 cell lysates; HA-Thor precipitated with anti-HA or GFP-4E-T with anti-GFP antibodies; endogenous eIF4E detected by western blot.

Assay [5] addresses T5, HA-Thor (full length, Arg81, Gly82 and Thr83 to alanine) (Drosophila melanogaster) (UniProt Q9XZ56).
T5 sequence: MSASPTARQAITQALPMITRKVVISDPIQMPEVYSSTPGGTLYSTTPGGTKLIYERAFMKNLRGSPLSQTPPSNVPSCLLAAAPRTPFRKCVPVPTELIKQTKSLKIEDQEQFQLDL
The assay is described as above.

Assay [6] has as its target T2, HA-Thor (full length, WT) (Drosophila melanogaster). Described as above.
Assay [7] addresses T6, HA-Thor (full length, ΔNC) (Drosophila melanogaster) (UniProt Q9XZ56).
T6 sequence: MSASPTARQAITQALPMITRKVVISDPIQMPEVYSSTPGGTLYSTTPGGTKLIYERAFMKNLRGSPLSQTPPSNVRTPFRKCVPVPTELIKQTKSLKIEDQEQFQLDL
The description is as above.

Assay [8] addresses T3, GFP-4E-T (full length, WT) (Drosophila melanogaster). The assay is described as above.

These are yes or no findings as the source states them, for the method shown. Binding seen in cells or lysates may run through a third protein. Some binding calls cover weakened binding; strength is not graded here. Tags and fused reporters may be left off the sequences shown.

B1: endogenous eIF4E (S2 cells) (protein, UniProt P48598 1-259)
chain: MQSDFHRMKNFANPKSMFKTSAPSTEQGRPEPPTSAAAPAEAKDVKPKEDPQETGEPAGNTATTTAPAGDDAVRTEHLYKHPLMNVWTLWYLENDRSKSWEDMQNEITSFDTVEDFWSLYNHIKPPSEIKLGSDYSLFKKNIRPMWEDAANKQGGRWVITLNKSSKTDLDNLWLDVLLCLIGEAFDHSDQICGAVINIRGKSNKISIWTADGNNEEAALEIGHKLRDALRLGRNNSLQYQLHKDTMVKQGSNVKSIYTL
On to B1, for which the binding result in assay [1], in assay [2], in assay [3], in assay [4], in assay [5] and in assay [6] was “binds” in each case. Further, the binding result is reported as “no binding” in assay [7] and “binds” in assay [8].

These data come from publication PMC4164784, “4E-BPs require non-canonical 4E-binding motifs and a lateral surface of eIF4E to repress translation” (Nature Communications, 2014).
